# According to US20020002140A1, “Novel bisphosphonates and uses thereof” (priority 2000, published 2002):
# Test system: bone cell suspension, including osteoclasts and other cell types
# Conditions: FIG. 3; concentrations up to 10^−4M
structure (smiles),measurement,value
"NCCCC(O)(P(=O)(O)O)P(=O)(O)O [alendronate, (4-amino-1-hydroxybutylidene)-1,1-bisphosphonic acid, reference compound]",toxicity (cell number),kills the majority of cells
